In the supplement of paper PMC8728848:
Some of the results follow.

Legend:
Experiment in all cases: glycan array binding signal (z-score within array); higher = stronger binding
Conditions in all cases: glycan notation: IUPAC condensed, linker removed
[1] = target: Neu5Ac(a2-6)Gal(b1-3)GlcNAc(b1-3)[Gal(b1-4)GlcNAc(b1-6)]Gal(b1-4)Glc
In short: (§1)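 The binding signal is a Z-score computed within each array and averaged over linkers. Arrays of the same protein sequence at different concentrations or buffers were also averaged together. Data originate from 3228 arrays in the Consortium for Functional Glycomics database, kept only where the protein sequence was available.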

Neu5Ac(a2-6)Gal(b1-4)Glc = target: Neu5Ac(a2-6)Gal(b1-4)Glc
In short: as §1

[2] = target: Neu5Ac(a2-6)Gal(b1-4)GlcNAc
In short: as §1

[3] = target: Neu5Ac(a2-6)Gal(b1-4)GlcNAc(b1-2)Man
In short: as §1

[4] = target: Neu5Ac(a2-6)Gal(b1-4)GlcNAc(b1-2)Man(a1-3)Man(b1-4)GlcNAc(b1-4)GlcNAc
In short: as §1

[5] = target: Neu5Ac(a2-6)Gal(b1-4)GlcNAc(b1-2)Man(a1-3)[Gal(b1-4)GlcNAc(b1-2)Man(a1-6)]Man(b1-4)GlcNAc(b1-4)GlcNAc
In short: as §1

[6] = target: Neu5Ac(a2-6)Gal(b1-4)GlcNAc(b1-2)Man(a1-3)[GlcNAc(b1-4)][Neu5Ac(a2-6)Gal(b1-4)GlcNAc(b1-2)Man(a1-6)]Man(b1-4)GlcNAc(b1-4)GlcNAc
In short: as §1

[7] = target: Neu5Ac(a2-6)Gal(b1-4)GlcNAc(b1-2)Man(a1-3)[Man(a1-6)]Man(b1-4)GlcNAc(b1-4)GlcNAc
In short: as §1

[8] = target: Neu5Ac(a2-6)Gal(b1-4)GlcNAc(b1-2)Man(a1-3)[Neu5Ac(a2-3)Gal(b1-4)GlcNAc(b1-2)Man(a1-6)]Man(b1-4)GlcNAc(b1-4)GlcNAc
In short: as §1

[9] = target: Neu5Ac(a2-6)Gal(b1-4)GlcNAc(b1-2)Man(a1-3)[Neu5Ac(a2-6)Gal(b1-4)GlcNAc(b1-2)Man(a1-6)]Man(b1-4)GlcNAc(b1-4)GlcNAc
In short: as §1

[10] = target: Neu5Ac(a2-6)Gal(b1-4)GlcNAc(b1-2)Man(a1-3)[Neu5Ac(a2-6)Gal(b1-4)GlcNAc(b1-2)Man(a1-6)]Man(b1-4)GlcNAc(b1-4)[Fuc(a1-6)]GlcNAc
In short: as §1

[11] = target: Neu5Ac(a2-6)Gal(b1-4)GlcNAc(b1-2)Man(a1-6)Man(b1-4)GlcNAc(b1-4)GlcNAc
In short: as §1

[12] = target: Neu5Ac(a2-6)Gal(b1-4)GlcNAc(b1-2)Man(a1-6)[Gal(b1-4)GlcNAc(b1-2)Man(a1-3)]Man(b1-4)GlcNAc(b1-4)GlcNAc
In short: as §1

[13] = target: Neu5Ac(a2-6)Gal(b1-4)GlcNAc(b1-2)Man(a1-6)[GlcNAc(b1-2)Man(a1-3)]Man(b1-4)GlcNAc(b1-4)GlcNAc
In short: as §1

[14] = target: Neu5Ac(a2-6)Gal(b1-4)GlcNAc(b1-2)Man(a1-6)[Man(a1-3)]Man(b1-4)GlcNAc(b1-4)GlcNAc
In short: as §1

[15] = target: Neu5Ac(a2-6)Gal(b1-4)GlcNAc(b1-2)[Neu5Ac(a2-6)Gal(b1-4)GlcNAc(b1-4)]Man(a1-3)[GlcNAc(b1-4)][Neu5Ac(a2-6)Gal(b1-4)GlcNAc(b1-2)[Neu5Ac(a2-6)Gal(b1-4)GlcNAc(b1-6)]Man(a1-6)]Man(b1-4)GlcNAc(b1-4)GlcNAc
In short: as §1

[16] = target: Neu5Ac(a2-6)Gal(b1-4)GlcNAc(b1-2)[Neu5Ac(a2-6)Gal(b1-4)GlcNAc(b1-4)]Man(a1-3)[GlcNAc(b1-4)][Neu5Ac(a2-6)Gal(b1-4)GlcNAc(b1-4)Man(a1-6)]Man(b1-4)GlcNAc(b1-4)GlcNAc
In short: as §1

[17] = target: Neu5Ac(a2-6)Gal(b1-4)GlcNAc(b1-2)[Neu5Ac(a2-6)Gal(b1-4)GlcNAc(b1-6)]Man(a1-6)[Neu5Ac(a2-6)Gal(b1-4)GlcNAc(b1-2)Man(a1-3)][GlcNAc(b1-4)]Man(b1-4)GlcNAc(b1-4)GlcNAc
In short: as §1

[18] = target: Neu5Ac(a2-6)Gal(b1-4)GlcNAc(b1-3)Gal(b1-3)GlcNAc
In short: as §1

[19] = target: Neu5Ac(a2-6)Gal(b1-4)GlcNAc(b1-3)Gal(b1-4)GlcNAc
In short: as §1

[20] = target: Neu5Ac(a2-6)Gal(b1-4)GlcNAc(b1-3)Gal(b1-4)GlcNAc(b1-2)Man(a1-3)[Neu5Ac(a2-6)Gal(b1-4)GlcNAc(b1-3)Gal(b1-4)GlcNAc(b1-2)Man(a1-6)]GalNAc
In short: as §1

[21] = target: Neu5Ac(a2-6)Gal(b1-4)GlcNAc(b1-3)Gal(b1-4)GlcNAc(b1-3)Gal(b1-4)GlcNAc
In short: as §1

[22] = target: Neu5Ac(a2-6)Gal(b1-4)GlcNAc(b1-3)Gal(b1-4)GlcNAc(b1-3)Gal(b1-4)GlcNAc(b1-2)Man(a1-3)[Neu5Ac(a2-6)Gal(b1-4)GlcNAc(b1-3)Gal(b1-4)GlcNAc(b1-3)Gal(b1-4)GlcNAc(b1-2)Man(a1-6)]GalNAc
In short: as §1

B1: LysMD3 (Homo sapiens), Q7Z3D4 (protein)
chain: MAGRHQNRSFPLPGVQSSGQVHAFGNCSDSDILEEDAEVYELRSRGKEKVRRSTSRDRLDDIIVLTKDIQEGDTLNAIALQYCCTVADIKRVNNLISDQDFFALRSIKIPVKKFSSLTETLCPPKGRQTSRHSSVQYSSEQQEILPANDSLAYSDSAGSFLKEVDRDIEQIVKCTDNKRENLNEVVSALTAQQMRFEPDNKNTQRKDPYYGADWGIG
[1]
  glycan array binding signal (z-score): -0.343
Neu5Ac(a2-6)Gal(b1-4)Glc
  glycan array binding signal (z-score): -1.03
[2]
  glycan array binding signal (z-score): -0.353
[3]
  glycan array binding signal (z-score): -0.362
[4]
  glycan array binding signal (z-score): -1.22
[5]
  glycan array binding signal (z-score): -0.25
[6]
  glycan array binding signal (z-score): 0.114
[7]
  glycan array binding signal (z-score): -1.15
[8]
  glycan array binding signal (z-score): -0.438
[9]
  glycan array binding signal (z-score): 0.296
[10]
  glycan array binding signal (z-score): -1.29
[11]
  glycan array binding signal (z-score): -0.395
[12]
  glycan array binding signal (z-score): -0.492
[13]
  glycan array binding signal (z-score): -0.319
[14]
  glycan array binding signal (z-score): -0.631
[15]
  glycan array binding signal (z-score): -0.178
[16]
  glycan array binding signal (z-score): 0.176
[17]
  glycan array binding signal (z-score): 1.03
[18]
  glycan array binding signal (z-score): -0.372
[19]
  glycan array binding signal (z-score): -0.186
[20]
  glycan array binding signal (z-score): -0.611
[21]
  glycan array binding signal (z-score): 0.502
[22]
  glycan array binding signal (z-score): 0.078
